# Test results reported in article PMC12370185.
# Some of the results follow. At the low end of the ranking the order means little.
# Test system: OCT4 + histone octamer
# Assay: Pioneer-seq (competitive nucleosome EMSA with sequencing)
# Details: 10 mM Tris-Cl pH 7.5, 50 mM NaCl, 1 mM DTT, 0.25 mg/ml BSA, 2 mM MgCl2, 0.025% Nonidet P-40, 5% glycerol; 28 nM nucleosome library; 10 min on ice then 30 min …; high values mean tight binding; double strand, one strand shown
row,Sequence,binding signal (log2 relative supershift)
1,GATGGACCCTATACGCGGCTGGTTTTCTTGCCTATATACACCACATACACCATATACCTATATACCTATACACATGTGGTGTATATAGAAGGGAAGTGTATGTGCTGTGTGTGCTGTGCATACTGTGGGTGGTGTAGTGATATATGCATATGTGGTGTGTGTGGAGTATATTGGGTGTGTGATGTGTATGGTATATATTGGGTGTGTGTGTGCCAGTCGGATAGTGTTCC,-0.518
2,GATGGACCCTATACGCGGCATTGCCGTGGGAGTGCCAACTACTGTGGAATAACAGGCCCAGCCCTGCAGGCTCGGGCACGCTGTGCTGTAGGCCACAGCAACCACAGGCTCTGAGGCCTCTGGCCGCTCCAGGAGGGAGGGGTGCCGGGACAGAGACGCCCTCAGGCCTGGGAAGGCAAACTTGGAGGTGGGGTGGAGGGGACTTGAGGATGCCAGTCGGATAGTGTTCC,-0.959
3,GATGGACCCTATACGCGGCCCCACGGACACACATACATCAACACCCCCAAAACACACCCACATGTCACCAACTCTCAGGACACACGTAGATCAGGCACACACAGACACATGCCATCAGACCTCAACACACCACCAGACACCAACCCACCCTCCTCACGCAACCCTCAAACATCATCACCAACTGTCAGCAACACACACACACACACACCCTGCCAGTCGGATAGTGTTCC,-0.759
4,GATGGACCCTATACGCGGCAGCCCCTGCCTCCCTCCCTGCAGCTCCCAGACAGGCTGGGCCCCAGCAGCAGGCCGGGCTGTCTGGCTGCTGTTCAACAGGGAGTCCAGCTGCCTGGGGTCCTACAGAACGGGGCTGGGCAGGCATTCTTCTCTGTCCAGGCTCTGGCTTCAGGGCCAGGAAGGCAGGAGTTGTTGAGGTGCCTTAGTTTTTGCCAGTCGGATAGTGTTCC,-0.708
5,GATGGACCCTATACGCGGCATGAGCACTCCAGAGGTGGCAGCAAAAGCCACAGCCTGGGTCTATAGCACAAACATCTGGTCAGCACACAGTCACTGCCTTGCCCCACCCATCCCTTTGGCCTCCTCAGGCCTCCAACTGGTGGAGCCTTAGTCCCGCATCCACATGGCCACACCAGAGAAGAGAGCTAGGTGGAGGATGGGTCCCTCCCTTGCCAGTCGGATAGTGTTCC,-0.79
6,GATGGACCCTATACGCGGCCTAAGTGCGGTCTCCAAATCACGATGATCAGCATCACTTGTTGGAACTTGTTGGGAATGCAAATTATCAAGCCCCACCCCAGACCTTTGTGATCTAAAAGCCCTCCAGGTGATTCTGATCCACACTGAAGCACGAGAACCACTGACCTTAGGAACTGTTACCTGTTCCTTTGCTTCCGTAGAGTGAAGTAATGCCAGTCGGATAGTGTTCC,-0.0315
7,GATGGACCCTATACGCGGCATGCTGTCTCTCTCACACATACACACATGGGCACATTCACAGGGATGCATACACGCCCCCACACCACATGCTTCCATACACATATGCATACATGAGGGCACATACACACGCCCATGCCACATGCTCACACACATACATGGGCACATACACAGGGGTGCATACACACCCATACCACCTCCTCTCACACACACTGCCAGTCGGATAGTGTTCC,-1.41
8,GATGGACCCTATACGCGGCTGGGGTCTGGATGCCTGGTGTGGCCTCATGCAGACTCTCTGGGCAGGTACCACAGTATGACGCGACAGCTGCTCCGCAAGGCTGACGGGGTGGTGCTCATGTACGACATCACCTCCCAGGAGAGCTTTGCCCACGTGCGCTACTGGCTAGACTGTCTCCAGGTGAGCAGATGGCTGCTGGGGTTGGCCCCATGCCAGTCGGATAGTGTTCC,-0.0218
9,GATGGACCCTATACGCGGCGTAGGCAAAGAGGAAGCCCAAGATAGGGGAAGGCCAGGGTGTTGGTTCCTCAGTTTGTTGAAATCAGAGTCATGAAGCAAGACAAGCCAGGGCTTGCTCAGCATTTCTCCTTCCTGGCATGGGTTCACCTCAGCCCCAATTCAGTGGCAGCTCTGTTGGTTCAGAGGGGTGAGGTATCCAAGAGGAGGAAGTGCCAGTCGGATAGTGTTCC,-0.528
10,GATGGACCCTATACGCGGCCCAGGCTGTAGATGTTCCAGGCTCCCCACTGAGGTATCACAGAAGGCTGGGTGGGGAGCTGGCACTTTCATCCTCACCAGTTGATAGTAAGAACCTCCCTCTTCTACGCTGGTACCCATGAAGACCATGTGGGTAGCCTGGACTCCACTCCCACCTGGTGGTAACAAGGCAACCTATCACCAGTGTCAGTGTGCCAGTCGGATAGTGTTCC,-0.789
11,GATGGACCCTATACGCGGCGGAGAGGAAGCCATCAGCGTAGCCATGGTGAGCTTTATCTTTCCCACCCTCGGAAGCACAGACATGGCCCGGCACGTGGCTCACGCCTGTAATCCCAACAGTTTGGGAAGCTGAGGCACGAGGATCGCTTGAGTTCACGAGTCAAGAGTTGGAGACCAGCCTGGGCAACATGGCGACACCTTGTCTGTACTTGCCAGTCGGATAGTGTTCC,-0.367
12,GATGGACCCTATACGCGGCGTATTTGTGCGTGTGTGTGTCTGAGGGTCTGTGTGCATGTGTGTATGTGCTCATGGGTGTGCATTTGTGCACGTGTGTGTGAGTGGCCCAAATGGGCACGCACTGTGTGTCCAGCACACATTGGTTCCCCCATCCCCCTGCACCCCACCCCATCTCCACCCCCCAGGACTTCATACCCATTACCCATGTGCTGCCAGTCGGATAGTGTTCC,-0.178
13,GATGGACCCTATACGCGGCATAGATGGAGAGGATTTCAAGTGATGTTTTCTGAAGATGGTTCTGTTGTCCCGGGAGAGCCCTTGGCGGACATGGTAGTGCCAGTCAGAGCCCTTGACGCTGTGCAGCCAGGTGGCTTATTGTCCCAGTGACTTTCCAACCAGATACTCTCAGTCAGAGTGAAGGGCTCCACTTAGAAACTCCCTTTCCCATGCCAGTCGGATAGTGTTCC,-0.543
14,GATGGACCCTATACGCGGCAGCATGATTCTCGCGATCCGCAGGGCCTCTCGGCTGCTGATCTTCAGCTGGTTGCTGAGAGTTGCAGCATTGCTGAGTCTTAGCAATGGATACTTCCCGATTCCCCTCACAAAAATAGGTCAGTCTGTCTGGCTAGTTCTGTACTTGCAGACACAGGGCATGTGGGGTTCCGGATCCAGCGACTTTACCGGTGCCAGTCGGATAGTGTTCC,-0.374
15,GATGGACCCTATACGCGGCATACATGGCACATACATTTGCCAAAACCAGTGAAATTTACAACACCAAGCATGAACCCTAATGTAAACGCATACTTTGAGTGATAATGATGTGTCTACGTTGGTTCATCAGCTGCAGCAAATGTACCACACTGGTGTGGACAGTGGGGAAGCCTGTGGGTGTAAGGGGAGGGAGTATATGGGAACTGTCTGTGCCAGTCGGATAGTGTTCC,-0.259
16,GATGGACCCTATACGCGGCAGTAAATATTTCAGGCTCTGTGGGTTACGTATCGTTTCTGTTGCAGCAACTCAACTCTGCTCTTGGAGCACAGAAGCAGCCACAAATACGTAAACAAATGGGTGTGGCTGTACACCAGTAAAACTTTACAAAACAAGGAGTGGTCCACGGCCTCAGCGTGCCAGCCTCTGCTCTAAACCGTGACACCCAAATGCCAGTCGGATAGTGTTCC,-0.568
17,GATGGACCCTATACGCGGCGAGGCACAGAGGCCTGAAGGGGACAGAGTGGGCAGGCCAGGTAGGCCGGGAAAGGTTTGAGGTGGGGACAATAGCCCTGCCCCTCCCCCACTCACGCCTTGAGCCCCTCCTTCTTCAGGATCTGCAAGCCGCAGTCCCACGTGTTCCGGTATTTGTGCGCCTCCAGGCCCTATGGGGGACATCAGCAGGCATGCCAGTCGGATAGTGTTCC,-0.26
18,GATGGACCCTATACGCGGCGACCTGCTCTGCAAGGCATCAGATGCCTTCCAGTCAGTAAGAGACAAGAGATACACAGGGTGCTCCCATTCCCACAGCAAGCACCACCCTGCACCACTAGTATTAGCACCACCCACATGGAAGGGTGCCAGACACATACCTACTAGCTGCCTGCCACGCATGGAAAATTCTTTAGGCAATACCCTCCGCACTGCCAGTCGGATAGTGTTCC,-0.258
19,GATGGACCCTATACGCGGCAAACCCCGCCACTTCCCCTTCCTCGGTAAGAGGAACTTGGCGTTGCCCTGACAGGAAAGTCTTGGTGGGGCTTCTCGGAAGCCGCCACCGCTGCACTGCTGAGCAAAACCACAGGTCAGGGGCCAGGCCGGGGGCCAGGCTAGTGAGGACTGGCCATTGATAAAGTCACAGGCTCCATCTAAGCCCATCGGTGCCAGTCGGATAGTGTTCC,-0.569
20,GATGGACCCTATACGCGGCCCGGGCAGAACTACTGAGCGAGGAGCCTATCAGTCCTGGTTCCCAAGCTCCCTGCCCCAGCCTGCCCCTGGCCTCCCAGTGCCTTGGCCTGCCTCACATGCCTGGGCTTGGCCCCAGGTTATCTTCAGAGCCATCCCATCCTGCCTCCCTGACTGACCATGCCACTTCCCGCTCAAAACCTGTCCATGGCTTGCCAGTCGGATAGTGTTCC,-0.809
21,GATGGACCCTATACGCGGCGAAAGCTAGCAGGAGGCGTTGCTCAAGTTCAAAACAATCTGTGCGTGTCCAGGCACGCGCGGAGCCAGACCCCAGCCGCGCGGCTCAGACCTCGCGAGAGCCATCACCTGAGAAATCCACAGCCTTTTCTCATCAGGCTTAGACTGTTTTTCCCATACCTCCAAGAAGGAAGACCCACATGTTAAAACTATTGCCAGTCGGATAGTGTTCC,-0.0483
22,GATGGACCCTATACGCGGCTACACACACGCGCACACCCATACACACGCACCATCTAACACAGTTTGTTCTGCCTAAACTTGGAGGCCCCAGCCATGGCTGGACGAATGCAAAAGAGGAGCAGTGGTGCGAATGAGGCAGTGACCATGCCAGGCCAGAGAACTGGGGCTGCCCACTGCTACTCCTCACTGAGTTGCCCTTGGCTTGTGCTATGCCAGTCGGATAGTGTTCC,-0.0652
23,GATGGACCCTATACGCGGCCAGGGATGAGTAATTCCACTTGACAGACAGGGAAACCTGAGGACGGTGGTTCTCAGACTTTAGGGGCGTTGCTTCCAGTAAGCAGATGTCTGAGCCACGTGGCAAGGAGGATGAGTCAGCAGGTTTGGGGTGGGGCTGGGTATCTGATGTTTACTCAGACCTCCTCATCCTCATCCTGCAGGTGGGCAGATTGCCAGTCGGATAGTGTTCC,-0.587
24,GATGGACCCTATACGCGGCTCACCCACCCACACATACTCACACATGCCTGCACACGCATACACTCATGCATGCACACACGGTCATCCACCCACATATACACACACATGCACGTTCACATGCACACTCGCATGCACACATGCAGTCACCCACCCACACGTGCACACTCACACACGCATACATAGACATACACACACACGAAGTCACCCACCTGCCAGTCGGATAGTGTTCC,-0.224

# Quoted at random: 2 entries already listed.
row,Sequence,binding signal (log2 relative supershift)
19,GATGGACCCTATACGCGGCAAACCCCGCCACTTCCCCTTCCTCGGTAAGAGGAACTTGGCGTTGCCCTGACAGGAAAGTCTTGGTGGGGCTTCTCGGAAGCCGCCACCGCTGCACTGCTGAGCAAAACCACAGGTCAGGGGCCAGGCCGGGGGCCAGGCTAGTGAGGACTGGCCATTGATAAAGTCACAGGCTCCATCTAAGCCCATCGGTGCCAGTCGGATAGTGTTCC,-0.569
20,GATGGACCCTATACGCGGCCCGGGCAGAACTACTGAGCGAGGAGCCTATCAGTCCTGGTTCCCAAGCTCCCTGCCCCAGCCTGCCCCTGGCCTCCCAGTGCCTTGGCCTGCCTCACATGCCTGGGCTTGGCCCCAGGTTATCTTCAGAGCCATCCCATCCTGCCTCCCTGACTGACCATGCCACTTCCCGCTCAAAACCTGTCCATGGCTTGCCAGTCGGATAGTGTTCC,-0.809
